No constants are given. Whether binding was seen depends on the method and setting. Some results given as binding are weak or reduced against the parent protein; the word gives no strength. Sequences can lack the tags named with a protein.
Target: L6 TIR domain (residues 29-233), yeast two-hybrid fusions (flax) (UniProt Q40253)
Test: two-hybrid; yeast AH109 co-transformed with prey (GAL4-AD) and bait (GAL4-BD) vectors; growth on CSM-Trp-Leu-His + 5 mM 3-AT (HIS3 reporter)

binding: binds
B1: L6 TIR domain (residues 29-233), yeast two-hybrid fusions (domain or fragment, UniProt Q40253 29-233)
chain: KDSIVNDDDDSTSEVDAISDSTNPSGSFPSVEYEVFLSFRGPDTREQFTDFLYQSLRRYKIHTFRDDDELLKGKEIGPNLLRAIDQSKIYVPIISSGYADSKWCLMELAEIVRRQEEDPRRIILPIFYMVDPSDVRHQTGCYKKAFRKHANKFDGQTIQNWKDALKKVGDLKGWHIGKNDKQGAIADKVSADIWSHISKENLILE

Reference: paper PMC5143477
